Taken from: PubChem BioAssay AID743121 (NCATS, 2013)
In all, the deposit lists about 26,000 reagents; below is an unselected part. Of all reagents, 167 (0.63%) were called active. 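Calls are per gene from RSA p-values that are not deposited; an individual active-marked siRNA can sensitise only weakly.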 The numbers tell different reagents against one gene apart. Not all columns of the deposit are shown. Reagent sequences are not shown.

- Screen: 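Partners whose loss is lethal together with topoisomerase I blockade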 (primary screen)
- System: MDA-MB-231 cells, a human breast cancer line
- Knock-down reagent: single siRNA against human genes, 20 nM siRNA (0.8 pmol per well)
- Timing: 120 h (drug added 48 h after transfection, read 72 h later)
- Conditions: camptothecin 20 nM (about EC30) for 72 h; vehicle 0.1% DMSO in parallel plates
- Measurement: 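CellTiter-Glo ATP signal, scaled to control siRNA as percent viability; sensitisation given as log2 of untreated divided by camptothecin-treated viability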
- Scale: log2 vehicle/camptothecin viability: higher = stronger sensitisation to camptothecin
- Active means: 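Each gene scored by redundant siRNA activity (RSA) over its individual siRNA ratios; a gene is called active at p < 0.001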

log2 vehicle/camptothecin viability, by target and reagent
LDHB (lactate dehydrogenase B): #1 -0.38 inactive; #2 -0.377 inactive; #3 -0.209 inactive; #4 -0.173 inactive
NEK5 (NIMA related kinase 5): #1 -0.114 inactive; #2 -0.143 inactive; #3 -0.391 inactive; #4 0.0542 inactive
CXCL16 (C-X-C motif chemokine ligand 16): #1 -0.3 inactive; #2 -0.255 inactive; #3 -0.0791 inactive; #4 0.505 inactive
CKAP2 (cytoskeleton associated protein 2): #1 0.158 inactive; #2 -0.313 inactive; #3 0.0363 inactive; #4 -0.168 inactive
NRIP3 (nuclear receptor interacting protein 3): #1 -0.0175 inactive; #2 -0.317 inactive; #3 -0.264 inactive
C5AR1 (complement C5a receptor 1): #1 0.00714 inactive; #2 0.247 inactive; #3 -0.122 inactive; #4 -0.277 inactive
HNRNPU (heterogeneous nuclear ribonucleoprotein U): #1 0.0716 inactive; #2 -0.291 inactive; #3 -0.00208 inactive; #4 -0.525 inactive
ABCC12 (ATP binding cassette subfamily C member 12): #1 0.245 inactive; #2 -0.0695 inactive; #3 -0.148 inactive
JUNB (JunB proto-oncogene, AP-1 transcription factor subunit): #1 0.069 inactive; #2 -0.0643 inactive; #3 -0.152 inactive; #4 -0.309 inactive
SERPINA11 (serpin family A member 11): #1 -0.0641 inactive; #2 -0.125 inactive; #3 -0.433 inactive; #4 0.115 inactive
MORN3 (MORN repeat containing 3): #1 -0.126 inactive; #2 -0.191 inactive; #3 -0.377 inactive; #4 0.494 inactive
KNTC1 (kinetochore associated 1): #1 0.109 inactive; #2 -0.0914 inactive; #3 -0.12 inactive
BAP1 (BRCA1 associated deubiquitinase 1): #1 0.227 inactive; #2 -0.452 inactive; #3 -0.503 inactive; #4 -0.178 inactive

Entries above whose target name begins with J or j:
log2 vehicle/camptothecin viability, by target and reagent
JUNB (JunB proto-oncogene, AP-1 transcription factor subunit): #1 0.069 inactive; #2 -0.0643 inactive; #3 -0.152 inactive; #4 -0.309 inactive
